Results are percentages, as filed.
The record does not define 0% and 100%; most values in the screen are far below 50% and negative numbers occur (in some assays of this library far below -100).
This is an unselected part of the compounds tested.

Amino acid sequences for entries named in this document (tags omitted).
UniProt E9BF75, entry or part of it: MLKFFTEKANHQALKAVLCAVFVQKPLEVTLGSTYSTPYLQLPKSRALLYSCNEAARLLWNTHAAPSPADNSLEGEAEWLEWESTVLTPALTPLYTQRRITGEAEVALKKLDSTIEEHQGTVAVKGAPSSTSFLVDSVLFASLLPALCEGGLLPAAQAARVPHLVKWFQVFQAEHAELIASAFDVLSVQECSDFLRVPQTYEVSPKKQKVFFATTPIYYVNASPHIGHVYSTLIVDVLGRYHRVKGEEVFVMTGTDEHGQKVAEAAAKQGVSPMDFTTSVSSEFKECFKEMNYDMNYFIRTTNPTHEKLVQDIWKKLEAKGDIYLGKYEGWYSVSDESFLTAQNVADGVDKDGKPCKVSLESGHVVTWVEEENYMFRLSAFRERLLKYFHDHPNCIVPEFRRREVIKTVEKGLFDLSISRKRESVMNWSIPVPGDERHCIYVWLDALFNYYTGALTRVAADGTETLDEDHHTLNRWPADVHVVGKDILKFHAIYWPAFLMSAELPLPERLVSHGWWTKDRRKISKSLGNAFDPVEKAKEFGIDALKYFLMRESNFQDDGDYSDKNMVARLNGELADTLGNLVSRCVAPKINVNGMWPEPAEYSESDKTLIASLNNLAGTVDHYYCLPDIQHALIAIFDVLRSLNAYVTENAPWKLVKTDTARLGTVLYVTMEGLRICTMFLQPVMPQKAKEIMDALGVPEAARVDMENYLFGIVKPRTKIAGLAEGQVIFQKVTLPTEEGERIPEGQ

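Primary screen of methionyl-tRNA synthetase; the read-out is not stated. Target: Methionyl-tRNA synthetase (putative), Leishmania donovani (UniProt E9BF75). The test concentration is not given. Values are per cent inhibition. Size under these conditions: about 68,000 compounds, about 24 of them at 50% or above in at least one test.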

SMILES,Inhibition
CCOCC1CN(C(=O)Cc2cccs2)Cc2ccnn2C1 (centres undefined),15.56%
Cn1cc(C[C@H]2[C@@H](OCC3CC3)CCN2C(=O)c2ccc[nH]2)cn1,10.99%
O=c1c(Cc2ccccc2)c(O)ccn1Cc1cccs1,7.008%
N#CCc1ccc(OCC(=O)NS(=O)(=O)c2ccc(Br)s2)cc1,0.2639%
CC(C)CC(=O)N1CCC(Nc2nc(O)cc(-c3ccsc3)n2)CC1,2.83%
COCCN(Cc1nccs1)c1nc2c(s1)c(C)nn2C,16.03%
CCn1cc(S(=O)(=O)N2CCCCCC2c2cc(C)no2)cn1 (centres undefined),13.65%
O=C(NCc1cc(F)ccc1F)Nc1ccn(CC(F)F)n1,-5.013%
CNC(=O)[C@@]12CCO[C@@H]1CCN(Cc1c(C)noc1C)C2,3.333%
CCCNC(=O)CN1CCN(c2nc(CC)ns2)CC1,15.33%
CC(O)c1cccc(N2CCC3(CCC(=O)N(C4CCCC4)C3)CC2)n1 (centres undefined),17.76%
CCN(CC)C(=O)CN1CCCC1c1nc(C)c2c(n1)N(C)C(=O)CC2 (centres undefined),30.53%
Cn1ncnc1NCc1ccc(Cl)cc1,14.86%
CC(C)(C)CC(=O)N1CSCC1C(=O)NC1=NCCS1 (centres undefined),4.261%
CCS(=O)(=O)N1CCC2(CCN(Cc3ccc(C)o3)C2)C1 (centres undefined),7.692%
Cc1ncc2c(n1)CN(C(C(N)=O)c1ccc(F)cc1)CC2 (centres undefined),15.32%
O=C(Cn1nnn(-c2cccs2)c1=O)NCC1CCOC1 (centres undefined),-1.079%
CC(=O)N1CCCC(C(=O)NCCOc2cc(C)cc(C)c2)C1 (centres undefined),11.93%
Cn1cc(C(=O)N2CCO[C@@H]3CN(C4CCC4)C[C@@H]3C2)cn1,13.66%
CC(C)Oc1cccc(C(=O)C2CCCN(C(=O)c3cncs3)C2)c1 (centres undefined),7.311%
CC(C)c1nnc(NC(=O)N(C)Cc2ccncc2)s1,15.76%
Nc1cc2c(nn1)CCN(C(=O)c1cccc3c1OCO3)C2,24.43%
CN(CCCO)C(=O)c1ccc2c(c1)nc(N1CC[C@H](O)C1)n2C,13.17%
CCn1cc(NC(=O)C2CCN(Cc3nc(C(C)C)no3)CC2)cn1,6.268%
COc1cccc(C(O)Cn2ncc3ncccc3c2=O)c1 (centres undefined),15.04%
CN(Cc1nnnn1C1CC1)c1cccc2ccccc12,14.21%
O=C(CCn1cncn1)N1CC[C@@H](c2ccc3ccccc3c2)[C@H](O)C1,10.96%
O=C(NC1CCCN(Cc2c(F)cccc2F)C1)c1cc[nH]n1 (centres undefined),9.218%
Cc1nnc(NCCc2coc(-c3ccccc3)n2)c(C#N)c1C,12.11%
Cc1ccccc1OCn1ccc(C(=O)NCCN2CCOCC2)n1,-14.32%
COc1cc(C)ccc1OCCN1CC[C@@]2(O)CCNC[C@H]2C1,1.37%
CNC(=O)C(C)(C)N1CCC[C@H]1C(=O)NCCN1CCCC1,-8.242%
CC(O)CC(C)(C)CNS(=O)(=O)c1cccc(Cl)c1C#N (centres undefined),7.519%
CCS(=O)(=O)N1C[C@H]2CN(Cc3ccc(OC)cc3)C(=O)[C@H]2C1,9.934%
Cc1[nH]nc(CCC(=O)N2C[C@H]3CC[C@@H]2CN(C(=O)N(C)C)C3)c1C,24.01%
Fc1ccc(Sc2ccccc2CNC2=NCCN2)cc1,20.53%
CCc1nnsc1C(=O)NCc1nnc2n1CCCCC2,10.47%
Cc1cncc(NC(=O)c2ccc(CN3CC[C@H](O)C3)cc2)c1,8.122%
Cc1nn(C)c(Cl)c1C1CCCN1Cc1ccc(C(N)=O)cc1 (centres undefined),23.94%
CN(Cc1ccccc1CN1CCCC1)c1ncnc2[nH]ccc12,28.52%
CC[C@H]1CN2CC[C@H]1C[C@@H]2CNC(=O)Nc1cc(OC)cc(OC)c1,12.09%
CN(C)[C@@H]1CCN(C(=O)c2ccccn2)[C@H]1Cc1ccncc1,16.42%
Cc1noc(C)c1CN1C[C@H](OCC2CCN(C)CC2)[C@H]2COC[C@H]21,3.297%
CC(=O)N1CCC(NC(=O)c2ccc3c(c2O)OC(C)(C)C3)CC1,17.75%
CS(=O)(=O)CCC(=O)N1CCC2(CCCN(C3CCOCC3)C2=O)C1 (centres undefined),13.5%
N[C@@H]1c2ccccc2C2(CCN(C(=O)c3ccc(CO)o3)CC2)[C@H]1O,10.97%
Cc1cc(CN2CCN(C(=O)c3ccc(=O)n(C)c3)CC2)no1,19.62%
CCC(NS(C)(=O)=O)c1ccccc1OC (centres undefined),4.676%
CC(=O)N1[C@H](CN(C)C)C[C@@H]2CN(C(=O)c3ccno3)CC[C@@H]21,10.64%
Cc1ncnc2c1CCN(C(=O)c1ccsc1)CC2,3.008%
COc1cccc(CC(=O)N2CCCC2c2nc(C)c(F)c(O)n2)c1 (centres undefined),14.79%
COc1c(CNC2CCc3cc(C)ccc32)c(C)nn1C (centres undefined),16.39%
Cc1ncsc1CN1CC2(CCCC2)CC1=O,9.278%
O=C(Cc1cccnc1)NC1CCCN(CCCc2ccccc2)C1 (centres undefined),12.96%
Cc1cc2n(n1)CC(CNC1CCN(Cc3ccccc3C)CC1)CN2 (centres undefined),15.24%
COc1cccc(CC(=O)N2CC[C@@H]3NC(=O)CC[C@@H]32)c1,10.03%
N#Cc1ccc(CN2CCOCC2)cc1,6.907%
COc1cccnc1-c1ccc(F)c2c1OC(CN)C2 (centres undefined),9.747%
CCN(Cc1nc(Cc2ccccc2)no1)C1CC1,22.29%
O=C(NC1CC1)N1CCc2ccc(=O)n(CCN3CCCC3)c2CC1,10.73%
Cc1noc(C)c1CN1C[C@H](C)[C@]2(CCN(Cc3cccnc3)C2=O)C1,15.06%
O=C(CCc1ccncc1)N1CCCC(N2CCNC2=O)C1 (centres undefined),15.68%
COCCOc1ncccc1C(=O)Nc1ccc(-n2cncn2)c(F)c1,15.31%
Cc1cc(C(=O)N2C[C@@H]3OCCN(CCN4CCCC4)[C@@H]3C2)c(C)o1,14.43%
Cc1cccc(N2CC[C@H]3CO[C@H](CN(C)Cc4ccco4)[C@H]3C2)n1,18.68%
N#Cc1ccc(CS(=O)(=O)NC(=O)c2ccc3c(c2)COC3)cc1,11.52%
CN(CCc1ccccc1)Cc1c(C2CCNCC2)[nH]c2ncccc12,15.7%
O=C(CCCc1ccc(Cl)cc1)N1CCC(c2nnc[nH]2)CC1,11.04%
Cn1cccc1CN1CCc2c(nc(-c3ccccn3)[nH]c2=O)C1,13.54%
CN1CCN(C(=O)c2cc3sccc3n2Cc2ccccc2)CC1,18.23%
Cc1ccc(C(=O)N2CC(Oc3ccccc3C)C2)s1,11.54%
Cc1ccc(CN2CCO[C@@H]3[C@@H](OCc4cccnc4)CC[C@@H]32)o1,19.22%
Cn1cc(CN2CCc3c(CNC(=O)C4CC4)cncc3C2)cn1,11.83%
CCS(=O)(=O)N(C)C1CCN(c2cccc(F)c2C(C)=O)CC1,17.73%
COc1ccc(Nc2nc(N)c(C(C)=O)s2)cc1Cl,26.24%
O=C(NCCCn1cncn1)c1ccc(-c2ccco2)[nH]c1=O,10.42%
CN(Cc1cccnc1)C1CC2(CCN(C(=O)c3cscn3)CC2)C1,5.109%
CO[C@H]1CN(C(C)C)C[C@@H]1NC(=O)c1cc(-c2ccccc2O)n[nH]1,13.87%
c1ccc(C2Cn3ccnc3CN2Cc2ncc[nH]2)cc1 (centres undefined),9.302%
COCC(=O)N1CCCC1c1cccc(Nc2ncc(C)s2)n1 (centres undefined),9.677%
COCCCC1(CO)CCCN(CCc2ccccn2)C1 (centres undefined),-0.7092%
CO[C@H]1C[C@@H](O)C12CCN(C(=O)c1cccc(CCC(C)(C)O)c1)CC2,4.032%
CCC(CC)c1cc(C(=O)N2CCN(C(C)C(N)=O)CC2)on1 (centres undefined),10.31%
O=C(NCC1CCCO1)c1nc2c(s1)CCCN2Cc1ccccc1 (centres undefined),18.36%
CCC(CO)N(Cc1cccc(O)c1)Cc1ccccc1C (centres undefined),9.926%

The first 6 entries again:

{"smiles": "CCOCC1CN(C(=O)Cc2cccs2)Cc2ccnn2C1", "stereo": "centres undefined", "Inhibition": 15.56}
{"smiles": "Cn1cc(C[C@H]2[C@@H](OCC3CC3)CCN2C(=O)c2ccc[nH]2)cn1", "Inhibition": 10.99}
{"smiles": "O=c1c(Cc2ccccc2)c(O)ccn1Cc1cccs1", "Inhibition": 7.008}
{"smiles": "N#CCc1ccc(OCC(=O)NS(=O)(=O)c2ccc(Br)s2)cc1", "Inhibition": 0.2639}
{"smiles": "CC(C)CC(=O)N1CCC(Nc2nc(O)cc(-c3ccsc3)n2)CC1", "Inhibition": 2.83}
{"smiles": "COCCN(Cc1nccs1)c1nc2c(s1)c(C)nn2C", "Inhibition": 16.03}

Source: ChEMBL document CHEMBL3988442, “University of Dundee, Small-Polar-MMV Screening Library” (2021).